Data as given in PubChem BioAssay AID1224828 (NIAID, 2016)
Purpose: 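Knock-downs that increase or decrease LPS-induced p65 nuclear translocation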 (primary screen). Cell system: mouse RAW264.7 G9 macrophage reporter cells (GFP-p65, Tnf promoter-mCherry). Reagent: siRNA pool against mouse genes, 100 nM. Duration: 2 days siRNA transfection, then 40 min LPS before fixation. Treatment: LPS (Salmonella minnesota R595) at 10 ng/ml. Measured: 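Imaged p65 nuclear translocation ratio, normalised to the plate median, converted to robust z-scores and averaged across two replicates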. Scale: p65 translocation robust z-score: higher = more nuclear NF-kappaB p65 after LPS than the plate median; nuclear/cytoplasmic p65 ratio: higher = more nuclear NF-kappaB p65. Rule for the call: 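Called active when z exceeds 3.3 or falls under -1.56 (median of Tlr4 controls), giving activity score of at least 50; no calls for control wells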. Calls: active = hit (p65 shift raised or lowered); inactive = no clear change.
Shown is an unselected part of about 17,000 reagents tested. Over the whole deposit, 762 (4.5%) are marked active. 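Active calls include both raised and lowered p65 entry, mostly lowered; wells with fewer than 50 cells lack a z-score.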 The raw values are shown without normalisation.

gene	p65 translocation robust z-score	nuclear/cytoplasmic p65 ratio, rep 1	nuclear/cytoplasmic p65 ratio, rep 2	low cell count flag	call
Hdac1 (histone deacetylase 1)	1.26	1.59	1.55	enough cells to score	inactive
Edc4 (enhancer of mRNA decapping 4)	0.49	1.57	2.01	enough cells to score	inactive
Tcl1b4 (T cell leukemia/lymphoma 1B, 4)		0	1.25	fewer than 50 cells per well; well left out of scoring	inactive
Dnai4 (dynein axonemal intermediate chain 4)	0.51	1.7	1.88	enough cells to score	inactive
Snapc4 (small nuclear RNA activating complex, polypeptide 4)		1.65	1.32	fewer than 50 cells per well; well left out of scoring	inactive
Hcar2 (hydroxycarboxylic acid receptor 2)	-0.92	1.41	1.41	enough cells to score	inactive
Ptpn2 (protein tyrosine phosphatase, non-receptor type 2)	0.51	1.52	1.52	enough cells to score	inactive
Kif21a (kinesin family member 21A)	-0.19	1.5	1.43	enough cells to score	inactive
Atp12a (ATPase, H+/K+ transporting, nongastric, alpha polypeptide)	0.38	1.57	1.66	enough cells to score	inactive
Son (Son DNA binding protein)	-3.65	1.14	0.919	enough cells to score	active
Calhm2 (calcium homeostasis modulator family member 2)	1.14	1.33	1.84	enough cells to score	inactive
Rnf24 (ring finger protein 24)	0.53	1.53	1.25	enough cells to score	inactive
Myb (Myb proto-oncogene, transcription factor)	0.63	1.53	1.41	enough cells to score	inactive
Sfxn1 (sideroflexin 1)	0.25	1.45	1.27	enough cells to score	inactive
Speer4f1 (spermatogenesis associated glutamate (E)-rich protein 4F1)	0.17	1.44	1.26	enough cells to score	inactive
Tex10 (testis expressed gene 10)	-1	1.19	1.13	enough cells to score	inactive
Trmt10a (tRNA methyltransferase 10A)		1.46	1.18	fewer than 50 cells per well; well left out of scoring	inactive
Asgr2 (asialoglycoprotein receptor 2)	-0.13	1.6	1.59	enough cells to score	inactive
A930037J23RIK	-1.33	1.39	1.34	enough cells to score	inactive
Dram2 (DNA-damage regulated autophagy modulator 2)	0.48	1.51	1.48	enough cells to score	inactive
Nr1i3 (nuclear receptor subfamily 1, group I, member 3)	0.7	1.58	1.47	enough cells to score	inactive
Cct4 (chaperonin containing TCP1 subunit 4)	0.09	1.43	1.39	enough cells to score	inactive
Cbfb (core binding factor beta)	-0.25	1.39	1.38	enough cells to score	inactive
Mbnl1 (muscleblind like splicing regulator 1)	-1.21	1.57	1.33	enough cells to score	inactive
Unc5c (unc-5 netrin receptor C)	0.07	1.59	1.45	enough cells to score	inactive
Phb1 (prohibitin 1)	-1.42	1.33	1.2	enough cells to score	inactive
Mia (MIA SH3 domain containing)	0.32	1.45	1.42	enough cells to score	inactive
Or4n4 (olfactory receptor family 4 subfamily N member 4)	-0.61	1.42	1.65	enough cells to score	inactive
Epo (erythropoietin)	-0.07	1.6	1.35	enough cells to score	inactive
Mab21l3 (mab-21-like 3)	-0.37	1.44	1.87	enough cells to score	inactive
Ces1e (carboxylesterase 1E)	-1.79	1.31	1.21	enough cells to score	active
Or8k20 (olfactory receptor family 8 subfamily K member 20)	-1.39	1.29	1.33	enough cells to score	inactive
Vmn1r22 (vomeronasal 1 receptor 22)	-0.55	1.32	1.19	enough cells to score	inactive
Ets1 (Ets proto-oncogene 1, transcription factor)	-0.32	1.51	1.25	enough cells to score	inactive
Gsdmc2 (gasdermin C2)	-0.56	1.35	1.62	enough cells to score	inactive
Cdc5l (cell division cycle 5-like)	3.07	1.92	1.74	enough cells to score	inactive
Acly (ATP citrate lyase)	-1	1.4	1.58	enough cells to score	inactive
S100a9 (S100 calcium binding protein A9 (calgranulin B))	-0.66	1.47	1.38	enough cells to score	inactive
Yy1 (YY1 transcription factor)	-1.06	1.38	1.41	enough cells to score	inactive
Aldh18a1 (aldehyde dehydrogenase 18 family, member A1)	-1.5	1.41	1.22	enough cells to score	inactive

Called active, among the entries above:
gene	p65 translocation robust z-score	nuclear/cytoplasmic p65 ratio, rep 1	nuclear/cytoplasmic p65 ratio, rep 2	low cell count flag	call
Son (Son DNA binding protein)	-3.65	1.14	0.919	enough cells to score	active
Ces1e (carboxylesterase 1E)	-1.79	1.31	1.21	enough cells to score	active
